Chains of the proteins cited; added tags and fusions are not shown. Lines headed by an entry give the natural chain unless they say otherwise; changes in a name come on top.
UniProt Q9D772: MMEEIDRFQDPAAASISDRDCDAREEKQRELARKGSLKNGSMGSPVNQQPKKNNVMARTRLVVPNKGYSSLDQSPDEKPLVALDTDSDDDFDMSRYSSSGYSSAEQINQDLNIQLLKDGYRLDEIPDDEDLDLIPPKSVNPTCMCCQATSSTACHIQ
UniProt Q9D7A6: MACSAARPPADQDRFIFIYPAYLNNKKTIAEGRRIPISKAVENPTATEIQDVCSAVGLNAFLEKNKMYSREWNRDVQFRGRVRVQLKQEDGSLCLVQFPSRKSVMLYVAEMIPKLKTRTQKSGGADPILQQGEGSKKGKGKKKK
UniProt Q9D842: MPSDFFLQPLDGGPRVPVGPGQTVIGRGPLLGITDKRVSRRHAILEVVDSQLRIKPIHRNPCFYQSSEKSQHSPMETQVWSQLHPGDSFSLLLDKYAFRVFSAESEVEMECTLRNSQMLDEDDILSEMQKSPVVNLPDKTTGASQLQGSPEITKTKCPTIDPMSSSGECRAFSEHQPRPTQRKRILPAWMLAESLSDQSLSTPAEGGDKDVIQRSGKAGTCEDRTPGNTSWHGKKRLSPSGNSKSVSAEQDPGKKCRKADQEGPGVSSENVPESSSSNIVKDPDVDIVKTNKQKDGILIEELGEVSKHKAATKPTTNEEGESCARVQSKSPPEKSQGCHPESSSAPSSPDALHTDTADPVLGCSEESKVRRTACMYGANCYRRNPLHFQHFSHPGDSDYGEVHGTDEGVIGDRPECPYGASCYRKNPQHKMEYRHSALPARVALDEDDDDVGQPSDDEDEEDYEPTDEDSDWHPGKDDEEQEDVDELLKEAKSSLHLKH
UniProt Q9D4J7: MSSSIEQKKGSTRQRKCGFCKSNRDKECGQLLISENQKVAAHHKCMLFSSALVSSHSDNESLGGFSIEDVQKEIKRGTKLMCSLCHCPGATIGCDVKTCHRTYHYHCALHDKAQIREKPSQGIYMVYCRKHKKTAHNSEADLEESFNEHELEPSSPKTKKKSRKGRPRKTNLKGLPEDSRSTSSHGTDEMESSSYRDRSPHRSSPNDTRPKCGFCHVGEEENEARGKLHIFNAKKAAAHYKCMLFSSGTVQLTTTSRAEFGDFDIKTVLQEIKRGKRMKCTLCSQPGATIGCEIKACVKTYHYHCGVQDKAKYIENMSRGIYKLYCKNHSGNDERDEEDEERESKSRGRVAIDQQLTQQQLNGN
UniProt Q9D720: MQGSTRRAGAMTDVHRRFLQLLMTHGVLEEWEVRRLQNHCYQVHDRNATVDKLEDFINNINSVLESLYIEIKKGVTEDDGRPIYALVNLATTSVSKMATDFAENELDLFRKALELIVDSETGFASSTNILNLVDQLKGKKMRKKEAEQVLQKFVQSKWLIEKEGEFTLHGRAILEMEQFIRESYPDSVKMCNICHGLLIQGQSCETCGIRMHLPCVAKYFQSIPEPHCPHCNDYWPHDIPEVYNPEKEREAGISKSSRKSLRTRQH
UniProt Q9D2Y6: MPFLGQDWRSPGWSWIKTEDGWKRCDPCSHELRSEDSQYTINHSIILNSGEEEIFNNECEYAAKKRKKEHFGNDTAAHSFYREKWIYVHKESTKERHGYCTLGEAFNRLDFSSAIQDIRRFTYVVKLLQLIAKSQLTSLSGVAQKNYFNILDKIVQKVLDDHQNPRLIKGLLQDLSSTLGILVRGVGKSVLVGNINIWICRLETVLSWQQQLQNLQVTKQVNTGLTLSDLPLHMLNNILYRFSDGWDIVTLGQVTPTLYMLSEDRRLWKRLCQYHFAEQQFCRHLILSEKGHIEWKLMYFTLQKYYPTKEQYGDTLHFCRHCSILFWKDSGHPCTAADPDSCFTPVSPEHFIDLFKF
UniProt Q9D1P4: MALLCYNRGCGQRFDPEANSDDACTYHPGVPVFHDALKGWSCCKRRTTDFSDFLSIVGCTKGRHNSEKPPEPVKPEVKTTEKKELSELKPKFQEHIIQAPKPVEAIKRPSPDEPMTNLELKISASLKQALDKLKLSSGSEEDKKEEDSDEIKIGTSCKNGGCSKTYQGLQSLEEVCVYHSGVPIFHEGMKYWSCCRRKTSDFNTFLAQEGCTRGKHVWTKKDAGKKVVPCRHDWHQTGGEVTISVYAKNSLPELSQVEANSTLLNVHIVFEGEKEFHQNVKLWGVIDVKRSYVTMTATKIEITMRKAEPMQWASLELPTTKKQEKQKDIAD
UniProt Q9D8U7: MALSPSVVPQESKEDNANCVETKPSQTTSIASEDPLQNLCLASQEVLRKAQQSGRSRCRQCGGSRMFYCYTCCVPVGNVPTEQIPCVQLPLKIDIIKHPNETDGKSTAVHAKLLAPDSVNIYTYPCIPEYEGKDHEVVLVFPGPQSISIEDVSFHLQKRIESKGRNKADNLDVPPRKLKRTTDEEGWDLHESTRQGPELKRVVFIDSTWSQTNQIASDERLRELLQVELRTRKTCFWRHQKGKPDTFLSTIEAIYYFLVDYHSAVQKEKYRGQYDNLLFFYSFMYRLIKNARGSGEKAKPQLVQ
UniProt Q9D3N8: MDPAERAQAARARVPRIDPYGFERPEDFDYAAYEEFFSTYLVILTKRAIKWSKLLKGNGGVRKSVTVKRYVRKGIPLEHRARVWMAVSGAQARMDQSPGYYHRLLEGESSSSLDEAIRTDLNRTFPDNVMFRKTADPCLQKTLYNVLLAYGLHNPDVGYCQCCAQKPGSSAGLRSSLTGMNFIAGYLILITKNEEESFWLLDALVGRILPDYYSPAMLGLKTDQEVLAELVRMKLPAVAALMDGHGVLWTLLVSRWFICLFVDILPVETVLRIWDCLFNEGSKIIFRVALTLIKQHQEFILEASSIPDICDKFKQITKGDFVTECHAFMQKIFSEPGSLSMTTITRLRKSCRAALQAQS
UniProt Q9D8H7: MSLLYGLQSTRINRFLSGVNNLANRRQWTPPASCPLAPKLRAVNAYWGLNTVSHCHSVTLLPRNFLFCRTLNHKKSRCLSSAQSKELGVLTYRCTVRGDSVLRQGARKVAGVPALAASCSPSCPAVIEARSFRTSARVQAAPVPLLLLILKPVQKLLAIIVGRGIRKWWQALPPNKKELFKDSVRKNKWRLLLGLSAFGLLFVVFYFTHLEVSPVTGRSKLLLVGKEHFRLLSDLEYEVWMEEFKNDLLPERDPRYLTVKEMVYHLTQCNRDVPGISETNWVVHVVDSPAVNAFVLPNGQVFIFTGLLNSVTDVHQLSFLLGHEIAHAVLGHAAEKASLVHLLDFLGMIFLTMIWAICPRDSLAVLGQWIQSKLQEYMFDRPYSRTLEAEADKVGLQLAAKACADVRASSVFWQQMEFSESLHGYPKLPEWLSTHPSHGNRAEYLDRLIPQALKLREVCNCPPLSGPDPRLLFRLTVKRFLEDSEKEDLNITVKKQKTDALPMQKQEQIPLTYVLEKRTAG
UniProt Q9DAJ4: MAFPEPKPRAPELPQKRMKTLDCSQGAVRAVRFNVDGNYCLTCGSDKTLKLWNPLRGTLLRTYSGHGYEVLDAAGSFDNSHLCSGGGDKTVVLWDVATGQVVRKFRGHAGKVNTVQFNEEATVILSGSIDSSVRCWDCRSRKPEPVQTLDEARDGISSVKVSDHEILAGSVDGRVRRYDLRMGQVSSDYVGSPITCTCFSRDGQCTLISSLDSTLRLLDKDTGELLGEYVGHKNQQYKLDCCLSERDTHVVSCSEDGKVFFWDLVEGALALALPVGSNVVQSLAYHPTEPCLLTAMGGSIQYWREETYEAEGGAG
UniProt Q9D6Y4: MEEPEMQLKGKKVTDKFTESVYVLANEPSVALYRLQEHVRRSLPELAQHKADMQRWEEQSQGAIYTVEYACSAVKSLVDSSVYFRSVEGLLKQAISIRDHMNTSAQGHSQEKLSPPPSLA
UniProt Q9D3A8: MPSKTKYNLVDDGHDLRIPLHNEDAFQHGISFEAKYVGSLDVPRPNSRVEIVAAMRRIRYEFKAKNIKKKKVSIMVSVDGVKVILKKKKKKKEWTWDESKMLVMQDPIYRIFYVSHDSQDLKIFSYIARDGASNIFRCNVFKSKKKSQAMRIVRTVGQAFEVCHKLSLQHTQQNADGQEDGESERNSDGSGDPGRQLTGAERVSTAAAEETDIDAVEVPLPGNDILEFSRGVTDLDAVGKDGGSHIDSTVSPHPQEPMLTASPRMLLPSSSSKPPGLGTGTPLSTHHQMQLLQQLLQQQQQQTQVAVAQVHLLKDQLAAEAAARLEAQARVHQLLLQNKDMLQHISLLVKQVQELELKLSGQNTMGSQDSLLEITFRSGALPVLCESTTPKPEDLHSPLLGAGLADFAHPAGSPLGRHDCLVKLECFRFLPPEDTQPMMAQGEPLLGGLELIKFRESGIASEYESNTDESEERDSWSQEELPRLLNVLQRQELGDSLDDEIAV
UniProt Q9DA08: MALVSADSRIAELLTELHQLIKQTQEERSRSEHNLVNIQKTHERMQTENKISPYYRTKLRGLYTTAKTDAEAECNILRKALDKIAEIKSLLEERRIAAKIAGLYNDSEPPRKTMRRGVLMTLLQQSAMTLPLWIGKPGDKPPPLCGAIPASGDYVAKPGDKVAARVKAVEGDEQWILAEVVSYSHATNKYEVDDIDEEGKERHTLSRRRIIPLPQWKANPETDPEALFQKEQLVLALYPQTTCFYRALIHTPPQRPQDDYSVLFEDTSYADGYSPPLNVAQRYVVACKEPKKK
UniProt Q9D2R6: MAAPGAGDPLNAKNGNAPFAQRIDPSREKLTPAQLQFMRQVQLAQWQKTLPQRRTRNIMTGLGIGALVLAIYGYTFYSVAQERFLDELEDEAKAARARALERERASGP
UniProt Q9D684: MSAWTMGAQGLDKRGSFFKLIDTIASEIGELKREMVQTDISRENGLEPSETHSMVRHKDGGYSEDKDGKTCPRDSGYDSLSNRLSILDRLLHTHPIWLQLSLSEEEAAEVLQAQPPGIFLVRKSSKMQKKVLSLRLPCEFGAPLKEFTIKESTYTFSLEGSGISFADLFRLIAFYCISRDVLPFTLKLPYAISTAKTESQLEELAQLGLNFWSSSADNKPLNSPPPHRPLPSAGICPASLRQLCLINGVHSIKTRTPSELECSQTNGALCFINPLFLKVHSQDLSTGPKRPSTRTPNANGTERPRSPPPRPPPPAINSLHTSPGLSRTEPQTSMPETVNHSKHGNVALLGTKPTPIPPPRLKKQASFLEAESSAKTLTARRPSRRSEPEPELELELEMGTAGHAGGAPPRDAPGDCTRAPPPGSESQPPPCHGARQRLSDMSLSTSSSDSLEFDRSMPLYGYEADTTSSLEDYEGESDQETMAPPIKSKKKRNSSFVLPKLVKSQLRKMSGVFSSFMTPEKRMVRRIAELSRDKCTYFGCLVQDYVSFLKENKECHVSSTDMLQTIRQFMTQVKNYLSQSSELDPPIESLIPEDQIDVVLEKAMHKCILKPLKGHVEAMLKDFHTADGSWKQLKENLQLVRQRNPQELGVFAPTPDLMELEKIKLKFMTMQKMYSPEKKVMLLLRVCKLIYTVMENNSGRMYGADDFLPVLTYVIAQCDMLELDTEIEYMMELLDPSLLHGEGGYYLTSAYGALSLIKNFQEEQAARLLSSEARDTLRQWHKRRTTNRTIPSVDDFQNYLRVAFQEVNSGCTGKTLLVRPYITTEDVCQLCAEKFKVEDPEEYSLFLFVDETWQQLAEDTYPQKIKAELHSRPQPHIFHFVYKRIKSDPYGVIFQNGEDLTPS
UniProt Q9D2X8: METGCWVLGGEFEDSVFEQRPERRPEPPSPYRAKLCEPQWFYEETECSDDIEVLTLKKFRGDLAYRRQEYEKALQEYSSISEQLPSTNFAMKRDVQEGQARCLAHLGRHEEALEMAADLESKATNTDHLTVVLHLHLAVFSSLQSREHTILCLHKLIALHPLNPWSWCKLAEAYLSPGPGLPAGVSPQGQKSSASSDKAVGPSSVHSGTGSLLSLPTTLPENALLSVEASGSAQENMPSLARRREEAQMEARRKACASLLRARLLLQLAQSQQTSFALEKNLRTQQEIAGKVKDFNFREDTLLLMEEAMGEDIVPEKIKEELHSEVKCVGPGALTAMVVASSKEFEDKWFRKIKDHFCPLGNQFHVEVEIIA
UniProt Q9D1R1: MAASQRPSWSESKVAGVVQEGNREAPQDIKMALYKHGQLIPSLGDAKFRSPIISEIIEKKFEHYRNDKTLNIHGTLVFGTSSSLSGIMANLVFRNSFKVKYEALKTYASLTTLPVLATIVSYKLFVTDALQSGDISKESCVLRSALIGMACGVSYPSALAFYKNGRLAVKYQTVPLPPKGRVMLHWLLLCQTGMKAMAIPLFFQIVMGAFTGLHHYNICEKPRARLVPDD
UniProt Q9D5K4: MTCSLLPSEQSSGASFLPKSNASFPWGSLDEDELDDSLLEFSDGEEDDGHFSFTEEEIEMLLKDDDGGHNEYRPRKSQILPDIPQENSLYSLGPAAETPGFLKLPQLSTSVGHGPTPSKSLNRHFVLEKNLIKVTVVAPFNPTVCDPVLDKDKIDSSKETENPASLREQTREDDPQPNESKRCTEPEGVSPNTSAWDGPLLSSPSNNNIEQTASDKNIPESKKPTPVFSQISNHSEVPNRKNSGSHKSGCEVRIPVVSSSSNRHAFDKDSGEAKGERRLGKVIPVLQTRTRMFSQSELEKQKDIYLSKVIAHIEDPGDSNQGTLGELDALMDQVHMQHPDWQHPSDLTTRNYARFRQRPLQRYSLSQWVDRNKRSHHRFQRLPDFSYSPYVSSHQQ

Some of the results follow. Most values lie at the level of the controls, where differences are scatter.
These targets were tested with CN[C@@H]1C[C@H]2O[C@@](C)([C@@H]1OC)n1c3ccccc3c3c4c(c5c6ccccc6n2c5c31)C(=O)NC4 [staurosporine] (assay: log2 fold change of tryptic peptide abundance, ligand vs vehicle (limited proteolysis) (log2 ratio); higher = more trypsin-susceptible (destabilized)). Settings: ligand concentration: 20 uM; sample: mouse liver crude lysate; replicate design: treated separately.
“UniProt Q9D772 (peptide sequence: NGSMGSPVNQQPK, peptide start residue: 39)” showed a log2 fold change of -0.106.
“UniProt Q9DAM7 (peptide sequence: DHPQQQPGMLSR, peptide start residue: 25)” showed a log2 fold change of 0.538.
Work on “UniProt Q9D7A6 (peptide sequence: QEDGSLCLVQFPSRK, peptide start residue: 88)” yielded a log2 fold change of 0.0299.
In the case of “UniProt Q9D842 (peptide sequence: GPLLGITDKR, peptide start residue: 28)”, the log2 fold change is reported as 0.271.
In the case of “UniProt Q9D4J7 (peptide sequence: GKLHIFNAK, peptide start residue: 226)”, the log2 fold change is reported as 0.243.
Work on “UniProt Q9D4H1 (peptide sequence: GGLSTFFEAQDALSAIHQK, peptide start residue: 207)” yielded a log2 fold change of 0.677.
“UniProt Q9D720 (peptide sequence: LQNHCYQVHDR, peptide start residue: 36)” was tested, and the log2 fold change was 0.487.
With “UniProt Q9D1N2 (peptide sequence: ADSPLESGTRHPQGGK, peptide start residue: 153)” the log2 fold change was 0.151.
In the case of “UniProt Q9D2Y6 (peptide sequence: CDPCSHELR, peptide start residue: 25)”, the log2 fold change is reported as -0.0424.
For “UniProt Q9D1P4 (peptide sequence: SYVTMTATK, peptide start residue: 291)”, the log2 fold change was 0.121.
With “UniProt Q9D8U7 (peptide sequence: RTTDEEGWDLHESTR, peptide start residue: 180)” the log2 fold change was 0.44.
“UniProt Q9D3N8 (peptide sequence: TDQEVLAELVR, peptide start residue: 222)” gave a log2 fold change of 0.313.
“UniProt Q9D8H7 (peptide sequence: QKTDALPMQK, peptide start residue: 496)” was tested, and the log2 fold change was -0.31.
“UniProt Q9D9Z5 (peptide sequence: KRDQEQVEAEGESSAPPR, peptide start residue: 71)” showed a log2 fold change of 0.349.
Work on “UniProt Q9DAJ4 (peptide sequence: APELPQKR, peptide start residue: 10)” yielded a log2 fold change of 0.358.
Work on “UniProt Q9D2E2 (peptide sequence: YAAEFHAR, peptide start residue: 231)” yielded a log2 fold change of 0.342.
Target “UniProt Q9D6Y4 (peptide sequence: DHMNTSAQGHSQEK, peptide start residue: 99)” has a log2 fold change of -0.761.
In the case of “UniProt Q9D3A8 (peptide sequence: DGGSHIDSTVSPHPQEPMLTASPR, peptide start residue: 241)”, the log2 fold change is reported as -0.356.
Target “UniProt Q9DA08 (peptide sequence: IAELLTELHQLIK, peptide start residue: 10)” has a log2 fold change of -0.213.
In the case of “UniProt Q9D2R6 (peptide sequence: EKLTPAQLQFMR, peptide start residue: 28)”, the log2 fold change is reported as -0.154.
“UniProt Q9D684 (peptide sequence: VHSQDLSTGPK, peptide start residue: 279)” gave a log2 fold change of -0.345.
“UniProt Q9D2X8 (peptide sequence: LIALHPLNPWSWCK, peptide start residue: 156)” gave a log2 fold change of 0.436.
For “UniProt Q9D1P2 (peptide sequence: KPPITVDSVCLK, peptide start residue: 433)”, the log2 fold change was 0.193.
For “UniProt Q9D1R1 (peptide sequence: FRSPIISEIIEK, peptide start residue: 48)”, the log2 fold change was 0.221.
“UniProt Q9D5K4 (peptide sequence: EQTREDDPQPNESKR, peptide start residue: 168)” was tested, and the log2 fold change was -0.204.

Reference: the supplement of paper PMC12819154, “High-throughput peptide-centric local stability assay extends protein–ligand identification to membrane proteins, tissues and bacteria” (Nature Structural & Molecular Biology, 2025)
